Reference: PubChem BioAssay AID1347076 (National Center for Advancing Translational Sciences (NCATS), 2019)
“And” between values parts separate entries of the source, which are not always exact repeats. Identical values can stand only once. Screen size: about 400,000 compounds; about 13,000 (3.2%) were called active. This list was built around the results that the source calls inconclusive (neither active nor inactive); the mix of calls is not that of the screen. Calls come from the whole dose curve; as a rule, active = well fitted cell-killing curve with a large enough effect; inconclusive = small, poorly fitted or top-dose-only effect, or effect the other way; inactive = flat fitted curve, though single readings scatter. Where the call is inconclusive, the potency comes from a doubtful curve fit.

Experiment: qHTS assay for MDR1-selective chemotherapeutics: Primary screen using the drug-selected MDR subline cells KB-V1; note: nearly all actives have a fitted effect of over 60% in size
Conditions: KB-V1 MDR cells viability, CellTiter-Glo, 72 h; activity change, negative = cytotoxicity: at 46.1 µM (top of the series)
Method in brief: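 KB-V1, DMEM (no phenol red) + 10% FBS; cpd pin-transferred, titration series; 72 h, 37 degrees C; CellTiter-Glo, luminescence. Data normalized, curve-fit.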
% is set by controls: 0 for no effect and ±100 for the full control effect; potency is the fitted concentration of half-maximal effect.

Structure (SMILES) | Potency | activity change, negative = cytotoxicity
COc1ccc(C(N)c2csc(Nc3nncc4ccccc34)n2)cc1 (stereo not drawn) | inconclusive: 23.1 µM [cytotoxic, partial curve, poor fit] | –
COC(=O)CCc1c(C)c(C(=O)c2cccc(OC)c2OC)c2ccccn12 | – | inactive: 5.39%
C=CCSc1nc2ccccc2n1C(=O)/C=C/c1ccc(OC)c(OC)c1 | – | inactive: -24.4%
CCCS(=O)(=O)N1CCN(C(=O)c2ccc(-c3ccccc3)cc2)CC1 | inconclusive: 8.2 µM [cytotoxic, partial curve, poor fit] | –
COc1ccccc1NC(=O)c1sc2nc3c(cc2c1N)CCCCCC3 | – | inactive: -25.5%
O=C(Nc1ccccc1-c1ccccc1)c1cccc(C(F)(F)F)c1 | inconclusive: 18.4 µM [cytotoxic, partial curve, poor fit] | –
COc1ccccc1-c1noc(CCCC(=O)NC2CCCC2)n1 | inconclusive: 29.1 µM [rising, single point] | –
C=C(C)Cn1c(CN(C)Cc2ccccc2)nc2c1c(=O)n(C)c(=O)n2C | inconclusive: 25.9 µM [cytotoxic, single point] | –
CCn1cc(C(=O)NCc2ccc(OC)cc2)c(=O)c2ccc(C)nc21 | inconclusive: 2.59 µM [cytotoxic, partial curve, poor fit] | –
Cc1ccc(C)c(OCC(=O)NNC(=O)CCN2CCN(c3ccccc3)CC2)c1 | active: 20.6 µM | –
COc1ccc(CCNC(=O)c2coc3ccccc3c2=O)cc1 | inconclusive: 3.26 µM [cytotoxic, partial curve, poor fit] | –
CCCC(=O)Nc1ccc2c(c1)nc(CCN1CCC(C)CC1)n2C | – | inactive: -5.63%
COc1ccc(C(=O)N2CCCc3ccccc32)cc1 | – | inconclusive: 4.52%
Cc1cccc(N2CCN(C(=O)CCS(=O)(=O)c3ccc(Br)cc3)CC2C)c1 (stereo not drawn) | inconclusive: 23.1 µM [cytotoxic, single point] | –
Cn1cc(Br)c(C(=O)NNC(=O)c2cccc(Br)c2)n1 | inconclusive: 32.6 µM [cytotoxic, single point] | –
O=C(Nc1ccc(Cl)cc1)c1cc(-c2cccs2)on1 | inconclusive: 13 µM [rising, partial curve, poor fit] | –
O=C(CSc1ccccc1)Nc1ccc(-c2nc3ccccc3[nH]2)cc1 | inconclusive: 18.4 µM [cytotoxic, partial curve, poor fit] | –
COc1ccc(CN2C[C@H](C)[C@@H](CC(=O)NCc3ccccc3)C2=O)cc1 | inconclusive: 8.2 µM [cytotoxic, partial curve] and inconclusive: 29.1 µM [cytotoxic, single point] | –
CN1C(=O)C(O)(CC(=O)c2ccc3c(c2)OCO3)c2ccccc21 (stereo not drawn) | – | inactive: 13%
CCOc1ccc(CN(C)CC(=O)NNC(=O)c2ccc(Cl)cc2)cc1OC | inconclusive: 13 µM [cytotoxic, partial curve] | –
COc1ccc(CCNC(=O)c2ccc(CNS(=O)(=O)c3cc(C)ccc3C)cc2)cc1OC | inconclusive: 20.6 µM [cytotoxic, single point] | –
COc1ccccc1/C=C(\C#N)C(=O)c1cccn1C | – | inactive: 4.85%

Structure (SMILES) | Potency | activity change, negative = cytotoxicity
CN(C(=O)COC(=O)COc1ccc(Cl)cc1Cl)c1c(N)n(Cc2ccccc2)c(=O)[nH]c1=O | – | inactive: -3.75%
Cc1ccn2c(=O)cc(COc3ccc(NC(=O)c4ccccc4F)cc3)nc2c1 | – | inactive: -0.518%
CC1=NN(C(N)=S)C(=O)C1N=Nc1ccc(S(N)(=O)=O)cc1 (stereo not drawn) | – | inactive: 1.92%
CC(C)(C)OC(=O)N[C@@H](COCc1ccccc1)C(=O)N[C@@H](CO)[C@H](O)[C@@H]1C[C@@H]1C(=O)NC1CCCCC1 | – | inactive: -5.65%
CCOc1ccc(NC(=O)CSc2nc3c(oc4ccccc43)c(=O)n2CCOC)cc1 | – | inactive: -10.9%
COc1ccc(OCc2nnc(SCC(N)=O)n2-c2ccccc2OC)cc1 | inconclusive: 16.4 µM [cytotoxic, single point] | –
CC(C(=O)NCC1CCCO1)N(C(=O)c1snc(C(N)=O)c1N)c1cccc(F)c1 (stereo not drawn) | active: 11.6 µM | –
CCc1ccc(-c2nc3c(=O)n(C)c(=O)nc-3n(CC)n2)cc1 | inconclusive: 18.4 µM [cytotoxic, single point] | –
COc1ccccc1N1CCN(C(=O)CN2C(=O)COc3ccc(S(=O)(=O)N4CCC(C)CC4)cc32)CC1 | inconclusive: 7.31 µM [cytotoxic, partial curve, poor fit] | –
O=C(NCCNc1ccc([N+](=O)[O-])cc1)c1cccc2c(Br)cccc12 | inconclusive: 2.91 µM [cytotoxic, full curve, poor fit] | –
COc1cc(CCC(=O)NCCc2ccc(F)cc2)cc(OC)c1OC | inconclusive: 8.2 µM [cytotoxic, partial curve] | –
CCN(CC)C(=O)[C@H]1C[C@H](CC(=O)NCCc2ccccn2)C(=O)N2CCc3c([nH]c4cc(CCC(=O)N(C)C)ccc34)[C@]12C | – | inactive: 0%
COc1ccc(NS(=O)(=O)c2cc(OCC(N)=O)c(C)cc2Cl)cc1 | inconclusive: 25.9 µM [cytotoxic, single point] | –
COC(=O)c1nc2n(n1)C(c1cc(OC)ccc1OC)C(C(=O)Nc1ccc(C)cc1C)=C(C)N2 (stereo not drawn) | – | inactive: -15.1%
CCC(c1nnnn1C(C)(C)C)N(Cc1cccs1)Cc1cc2cc(C)c(C)cc2n2nnnc12 (stereo not drawn) | inconclusive: 4.11 µM [cytotoxic, full curve, poor fit] | –
CCCS/C(N)=N/N=C/c1ccccc1O | inconclusive: 23.1 µM [cytotoxic, single point] | –
COCCN(C(=S)Nc1ccc(C)cc1C)C(C)c1ccco1 (stereo not drawn) | – | inactive: 29.1%
CCCN=C(C)c1c(-c2ccccc2)[nH]n(-c2nc3ccccc3s2)c1=O | active: 8.2 µM | –
c1ccc(CN(Cc2ccco2)C(c2ccncc2)c2nnnn2C2CCCC2)cc1 (stereo not drawn) | inconclusive: 7.31 µM [cytotoxic, partial curve] | –
COc1ccc(CCN2C(=O)CCC3=C2CCCC3=O)cc1OC | – | inactive: -13.7%
CCOc1ccc(NC(=O)CSc2nc(NS(=O)(=O)c3ccc(C)cc3)cc(=O)[nH]2)cc1 | inconclusive: 20.6 µM [cytotoxic, single point] | –
